According to patent US20240301049A1:

Target: OX40L (human)
Assay: SPR (Biacore 8K+): F027201062 captured on immobilized HSA, analyte injected for 2 min

B1: F027201062 (bispecific antibody)
chain: DVQLVESGGGVVQPGGSLRLSCAASGRTFSNYAMAWFRQAPGKEREFVAVISYAGGRTYYADSVKGRFTISRDNAKNTVYLQMNSLRPEDTALYYCAAVDSPLIATHPRGYDYWGQGTLVTVSSGGGGSGGGSEVQLVESGGGVVQPGGSLRLSCAASGFTFRSFGMSWVRQAPGKGPEWVSSISGSGSDTLYADSVKGRFTISRDNSKNTLYLQMNSLRPEDTALYYCTIGGSLSRSSQGTLVTVSSGGGGSGGGSEVQLVESGGGVVQPGGSLRLSCAASGFTLAYYAIGWFRQAPGKEREGVSCISGSVGTTYYADSVKGRFTISRDNAKNTVYLQMNSLRPEDTALYYCVRSSWFDCGVQGRDLGNEYDYRGQGTLVTVSSGGGGSGGGSEVQLVESGGGVVQPGGSLRLSCTASGFTFSTADMGWFRQAPGKGREFVARISGIDGTTYYDEPVKGRFTISRDNSKNTVYLQMNSLRPEDTALYYCRSPRYADQWSAYDYWGQGTLVKVSSA
binding: no binding (tested: 100 nM)

These are yes or no findings as the source states them, for the method shown.
